PubChem BioAssay AID743121, NCATS – 2013

Aim: 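Genes whose silencing strengthens cell killing by camptothecin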 (primary screen)
Cell system: MDA-MB-231 cells, a human breast cancer line
Reagents: single siRNA against human genes, 20 nM siRNA (0.8 pmol per well)
Timing: 120 h (drug added 48 h after transfection, read 72 h later)
Conditions: camptothecin 20 nM (about EC30) for 72 h; vehicle 0.1% DMSO in parallel plates
Detection: 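Cell viability by ATP luminescence (CellTiter-Glo) as % of non-targeting siRNA wells, and the log2 ratio of viability without drug over viability with camptothecin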
Reading the numbers: log2 vehicle/camptothecin viability: higher = stronger sensitisation to camptothecin; viability with camptothecin: higher = more viable cells
Hit rule: 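Each gene scored by redundant siRNA activity (RSA) over its individual siRNA ratios; a gene is called active at p < 0.001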
The whole screen tested about 26,000 reagents; below is a random part of them. Of all reagents, 167 (0.63%) got an active call. 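Calls are per gene from RSA p-values that are not deposited; an individual active-marked siRNA can sensitise only weakly.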 The numbers tell different reagents against one gene apart. Not all columns of the deposit are shown. Reagent sequences are not shown.

The first 6 records, ahead of the listing:
Target gene,reagent,log2 vehicle/camptothecin viability,viability with camptothecin (% of control),activity call
UXT (GeneID 8409),1,-0.251,101,inactive
UXT (GeneID 8409),2,-0.092,96.8,inactive
UXT (GeneID 8409),3,-0.0357,119,inactive
ACSL6 (GeneID 23305),1,0.124,76.2,inactive
ACSL6 (GeneID 23305),2,-0.0128,93.1,inactive
ACSL6 (GeneID 23305),3,-0.163,35.2,inactive

Main list, from the start:
Target gene,reagent,log2 vehicle/camptothecin viability,viability with camptothecin (% of control),activity call
UXT (GeneID 8409),1,-0.251,101,inactive
UXT (GeneID 8409),2,-0.092,96.8,inactive
UXT (GeneID 8409),3,-0.0357,119,inactive
ACSL6 (GeneID 23305),1,0.124,76.2,inactive
ACSL6 (GeneID 23305),2,-0.0128,93.1,inactive
ACSL6 (GeneID 23305),3,-0.163,35.2,inactive
ACSL6 (GeneID 23305),4,0.0816,88.5,inactive
RNF130 (GeneID 55819),1,-0.27,95.1,inactive
RNF130 (GeneID 55819),2,0.294,69.3,inactive
RNF130 (GeneID 55819),3,-0.328,64.2,inactive
RNF130 (GeneID 55819),4,-0.371,87.2,inactive
LOC100134363 (retired record) (GeneID 100134363),1,0.208,69.5,inactive
PKDREJ (GeneID 10343),1,-0.229,56.4,inactive
PKDREJ (GeneID 10343),2,0.0558,100,inactive
PKDREJ (GeneID 10343),3,0.0422,94.1,inactive
PKDREJ (GeneID 10343),4,0.0254,95.8,inactive
GUCY1B1 (GeneID 2983),1,-0.121,83,inactive
GUCY1B1 (GeneID 2983),2,-0.0943,56.2,inactive
GUCY1B1 (GeneID 2983),3,-0.545,101,inactive
GUCY1B1 (GeneID 2983),4,0.189,70.9,inactive
IL13RA1 (GeneID 3597),1,-0.217,62.9,inactive
IL13RA1 (GeneID 3597),2,-0.459,97.3,inactive
IL13RA1 (GeneID 3597),3,-0.195,97.4,inactive
IL13RA1 (GeneID 3597),4,-0.175,107,inactive
OPN4 (GeneID 94233),1,-0.522,79.2,inactive
OPN4 (GeneID 94233),2,0.816,32.6,inactive
OPN4 (GeneID 94233),3,-0.28,87.6,inactive
OPN4 (GeneID 94233),4,0.362,42.4,inactive
CCNB3 (GeneID 85417),1,-0.448,71.3,inactive
CCNB3 (GeneID 85417),2,0.158,69.1,inactive
CCNB3 (GeneID 85417),3,0.692,11.9,inactive
CCNB3 (GeneID 85417),4,-0.366,72.9,inactive
SSTR4 (GeneID 6754),1,-0.14,66.1,inactive
SSTR4 (GeneID 6754),2,0.0485,50.5,inactive
SSTR4 (GeneID 6754),3,-0.292,62.3,inactive
SSTR4 (GeneID 6754),4,-0.0457,84.7,inactive
VCL (GeneID 7414),1,0.0602,104,inactive
VCL (GeneID 7414),2,0.0317,96.8,inactive
VCL (GeneID 7414),3,-0.599,64.7,inactive
VCL (GeneID 7414),4,-0.465,95,inactive
OLIG1 (GeneID 116448),1,-0.0667,95.9,inactive
OLIG1 (GeneID 116448),2,-0.299,121,inactive
OLIG1 (GeneID 116448),3,-0.65,80,inactive
OLIG1 (GeneID 116448),4,0.0161,90,inactive
CD200R1L (GeneID 344807),1,0.281,56.4,inactive
CD200R1L (GeneID 344807),2,-0.338,75.8,inactive
CD200R1L (GeneID 344807),3,-0.274,120,inactive
ABCG2 (GeneID 9429),1,-0.273,51.3,inactive
ABCG2 (GeneID 9429),2,-0.292,94.4,inactive
ABCG2 (GeneID 9429),3,0.0159,70.4,inactive
ABCG2 (GeneID 9429),4,-0.314,120,inactive
CDC20B (GeneID 166979),1,-0.331,68.2,inactive
CDC20B (GeneID 166979),2,-0.363,72.8,inactive
CDC20B (GeneID 166979),3,-0.227,105,inactive
CDC20B (GeneID 166979),4,0.57,48.8,inactive
OPN1SW (GeneID 611),1,0.515,30,inactive
OPN1SW (GeneID 611),2,0.177,28.4,inactive
OPN1SW (GeneID 611),3,-0.208,61,inactive
OPN1SW (GeneID 611),4,0.678,33.9,inactive
PLAAT3 (GeneID 11145),1,-0.229,113,inactive
PLAAT3 (GeneID 11145),2,-0.144,82.9,inactive
PLAAT3 (GeneID 11145),3,0.108,72.4,inactive
PLAAT3 (GeneID 11145),4,-0.579,91.5,inactive
BPIFC (GeneID 254240),1,-0.0839,105,inactive
BPIFC (GeneID 254240),2,-0.0243,63.9,inactive
BPIFC (GeneID 254240),3,-0.485,41.4,inactive
LRCH4 (GeneID 4034),1,0.403,38.5,active
LRCH4 (GeneID 4034),2,-0.743,64.8,active
LRCH4 (GeneID 4034),3,0.514,29.1,active
LRCH4 (GeneID 4034),4,0.957,39.2,active
